PubChem BioAssay AID504784 – Drosophila RNAi Screening Center, 2011

Test: 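Search for regulators of lipid droplet storage in oleate-fed fly cells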 (primary screen)
Cells: Drosophila Kc167 embryonic cells
Reagent: long dsRNA against Drosophila genes, about 250 ng dsRNA per well
Duration: 4 days
Conditions: cells fed 400 µM oleic acid bound to BSA
Read-out: 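Microscope images give a droplet-to-nucleus area ratio, taken as log and converted to a screen-wide B-score; higher values mean greater lipid storage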
Scale: droplet/nuclear area B-score: higher = more stored lipid (overstorage)
The screen tested about 17,000 reagents; shown is a random part of those that have a named target and a result. 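Each column is one replicate's B-score; the combined score over replicates was not deposited, so single values may mislead.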 A plus sign joins genes that one reagent is predicted to hit.

gene	PubChem SID	droplet/nuclear area B-score, replicate 1	droplet/nuclear area B-score, replicate 2	droplet/nuclear area B-score, replicate 3
Gr33a	SID104182381	-0.885	-0.0707	
CG13250	SID104191490	-3.04	-0.475	
Sar1	SID104196841	0.862	1.72	
Sar1	SID104201675	-1.75	1.61	
CG13955	SID104186235	-0.703	1.67	
ksh	SID104199346	-0.769	-1.75	
dsx-c73A	SID104189227	-1.38	0.3	
dsx-c73A	SID104189706	-0.478	0.215	
dsx-c73A	SID104190221	0.87	0.359	
CG33490	SID104190379	0.0598	-0.526	
Grasp65	SID104190709	-1.38	0.462	
CG3740	SID104198300	0.856	0.499	
Or88a	SID104196562	-0.0421	0.821	
CG10257	SID104185777	-1.42	0.93	
PIG-H + Kmn2	SID104192445	0.905	-0.288	
GMF	SID104181720	-0.00127	-1.04	
CNT1 + CG13742	SID104186205	0.234	-0.769	
Mgat1	SID104187255	-2.06	-0.436	
tos	SID104183416	-0.0212	-1.03	
Pura	SID104188683	1.49	-0.472	
Pura	SID104190654	-0.858	-0.654	
Pura	SID104190656	-1.28	-1.73	
Pura	SID104190657	-0.604	0.0886	
Pura	SID104190658	-0.0098	-2.12	
Dpy-30L2	SID104187997	1.07	-0.319	
CG7742	SID104182858	-0.673	1.75	
CG10154	SID104189499	1.86	0.928	
CG13159	SID104186075	-0.0386	-1.14	-1.29
CG2691	SID104199658	0.0636	1.28	0.743
CG18747	SID104195176	-0.0174	1.67	
sip1	SID104183401	-1.57	0.133	
sip1	SID104202051	-1.37	0.0406	
CG13083	SID104181979	1.28	0.601	
Ciao1	SID104185962	-0.016	-1.05	
Mst27D	SID104180759	1	0.155	
CG3713	SID104198440	-1.6	0.126	
CG11986	SID104194253	2.29	1.27	
PIP4K	SID104197005	-0.177	-0.445	
Chro	SID104191422	-0.0223	0.614	0.142
CG31600	SID104201980	0.622	0.0286	
snoRNA:Me28S-C3227a + snoRNA:Me18S-A1061 + snoRNA:Me28S-C3227b + 7 more	SID104185289	0.322	0.0109	
Syx13	SID104189628	-0.513	-0.408	
Npl4	SID104195407	-0.65		
Npl4	SID104195408	-0.139	-0.642	
CG5103	SID104190273	-0.533	0.261	
CG42374 + Mettl5	SID104190877	0.432	-1.43	0.107
ETHR	SID104195707	-3	1.56	

Continued; the last 8 above are carried over.
gene	PubChem SID	droplet/nuclear area B-score, replicate 1	droplet/nuclear area B-score, replicate 2	droplet/nuclear area B-score, replicate 3
CG31600	SID104201980	0.622	0.0286	
snoRNA:Me28S-C3227a + snoRNA:Me18S-A1061 + snoRNA:Me28S-C3227b + 7 more	SID104185289	0.322	0.0109	
Syx13	SID104189628	-0.513	-0.408	
Npl4	SID104195407	-0.65		
Npl4	SID104195408	-0.139	-0.642	
CG5103	SID104190273	-0.533	0.261	
CG42374 + Mettl5	SID104190877	0.432	-1.43	0.107
ETHR	SID104195707	-3	1.56	
SH3PX1	SID104190931	-0.675	-0.162	
CG15522	SID104194851	1.45	0.00373	
ec	SID104198450	-0.759	-2.91	
Klf15	SID104197534	-0.162	0.00505	
Parp16	SID104186389	0.0585	0.459	
Galt	SID104182953	-3.38	0.287	
CG43861 + CG12508 (retired record)	SID104181962	-0.0512	-0.814	
CG12155	SID104197618	-1	-2.26	-0.0367
CG12155	SID104202651	-0.885	-0.206	
mxc	SID104197611	0.206	-1.14	0.752
Alg11	SID104191439	1.12	0.0348	-1.87
TfIIS	SID104183247	1	-0.501	
Trf4	SID104180521	-0.798	1.54	
CG13738	SID104189857	-0.847	-0.778	
yrt	SID104196351	2.26	-0.0164	
Acp1	SID104181646	0.0472	0.0536	
CG6180	SID104182729	0.0273	-0.541	
Cyt-c1	SID104190239	0.78	0.0631	
Ir62a	SID104188042	0.178	-1.23	
CG34423 + Mthfs	SID104183880	-1.27	0.212	
CG14658	SID104192036	0.94	-0.0291	
rdo	SID104182244	-2.97	-1.74	
Rnf11	SID104201284	-0.208	-1.29	
CG31668	SID104202006	1.06	-0.185	
CREG	SID104196387	-0.17	-0.238	
Toll-7	SID104187355	-1.12	-1.03	0.823
CG12730	SID104197677	-0.259	-0.933	
fru	SID104196743	1.34	0.536	
fru	SID104196744	-2.81	-1.91	
fru	SID104196745	-1.02	-4.32	-0.905
fru	SID104201304	0.233	-0.114	
CG8343	SID104184697	-1.71	-0.65	
Obp99d	SID104194838	-0.0593	2.46	
CG17681	SID104182424	0.871	1.97	
superdeath	SID104194660	1.59	-0.252	
Pex2	SID104190562	1.72	1.64	
